Microarray screen: hit calls

Calls as published in the ROBIN set (doi:10.1002/anie.202211358).

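Compounds were printed on reactive glass slides in duplicate spots, a dye-labelled oligonucleotide was laid over them, and the fluorescence left after washing was read. For the PreQ1, TPP and SAM-II riboswitches the laboratory earlier reported (doi:10.1038/s41467-019-09493-3) 1 µM RNA, 2 h, and a rule that included a mean Z-score above 3 (spot signal-to-noise against the whole library), a score well above that on a control array, and duplicate spots agreeing (coefficient of variation under 100). The data file gives only the calls; its cut-offs may differ, and compounds hitting several targets are kept. The calls come from the array alone, and fixing a compound to the slide can hide its binding.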 Key: 1 = hit, 0 = tested without a hit. Compounds were drawn at random from those tested, without regard to their results. A target missing from an entry has no call listed here.

Targets (5′ to 3′):
T1: SAM-II riboswitch RNA pseudoknot, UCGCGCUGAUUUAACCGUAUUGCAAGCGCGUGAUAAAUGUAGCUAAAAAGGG. Hit rate about 1% of about 21,000 compounds.
T2: TPP riboswitch RNA three-way junction, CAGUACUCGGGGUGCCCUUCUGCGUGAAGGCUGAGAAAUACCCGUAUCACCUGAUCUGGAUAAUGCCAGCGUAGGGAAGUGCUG. Hit rate about 0.7% of about 24,000 compounds.
T3: PreQ1 riboswitch RNA pseudoknot, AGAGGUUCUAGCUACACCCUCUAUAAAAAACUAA. From B. subtilis. Hit rate about 0.7% of about 24,000 compounds.

{"compound": "CCC(O)c1nc2ccccc2n1CCCCOc1ccccc1", "stereo": "configuration not stated", "T2": "0", "T3": "0"}
{"compound": "Cn1c(C(=O)N2CCOCC(O)C2)cc2cccc(Cl)c21", "stereo": "configuration not stated", "T1": "0", "T2": "0", "T3": "0"}
{"compound": "Cc1cc(C)cc(OCC(O)Cn2cnc3ccccc32)c1", "stereo": "configuration not stated", "T2": "0", "T3": "0"}
{"compound": "Cc1ccc(/N=N/c2ccc(N)cc2C)c(S(N)(=O)=O)c1", "T1": "0", "T2": "1", "T3": "0"}
{"compound": "CCCCc1nc2ccccc2c(NC(=O)CNC(C)(C)C)c1CCC.O=C(O)C(=O)O", "T1": "0", "T2": "0", "T3": "0"}
{"compound": "CC(O)CNc1nc2c(c(=O)n(Cc3ccccc3)c(=O)n2C)n1C", "stereo": "configuration not stated", "T1": "0", "T2": "0", "T3": "0"}
{"compound": "O=C1CCCN1CCCn1ccnc1-c1cn(C2CCNCC2)nn1", "T1": "0", "T2": "0", "T3": "0"}
{"compound": "COc1ccc2c(c1)c1ccc3c(c1n2C)C(=O)C=CC3=O", "T1": "0", "T2": "0", "T3": "0"}
{"compound": "COc1cccc(CCC(=O)N2C[C@H]3CN(CCO)C[C@@]3(C(=O)O)C2)c1", "T1": "0", "T2": "0", "T3": "0"}
{"compound": "O=C(CN1CCN(c2ncccn2)CC1)N[C@@H]1CCNC[C@H]1O", "T1": "0", "T2": "0", "T3": "0"}
{"compound": "CCc1nnc(NC(=O)CSc2nc(=O)cc(N)n2-c2ccccc2)s1", "T1": "0", "T2": "0", "T3": "0"}
{"compound": "Cc1cc(C)cc(NC(=O)c2nnn(Cc3cccc(Cl)c3)c2N)c1", "T1": "0", "T2": "0", "T3": "0"}
{"compound": "Cc1nc(N(C)C)nc(NC[C@H]2CCCC[C@H]2O)c1C", "T1": "0", "T2": "0", "T3": "0"}
{"compound": "c1cncc(CNc2ncnc3c2nc2n3CCCCC2)c1", "T2": "0", "T3": "0"}
{"compound": "CC(C)c1ccc2c(c1)c(SC(C)(C)C)c(CC(C)(C)C(=O)[O-])n2Cc1ccc(Cl)cc1", "T1": "0", "T2": "0", "T3": "0"}
{"compound": "Cc1cnc(C)c(-c2cc(O)c3c(c2)CN(C(=O)C2CCNC2)CCO3)n1", "stereo": "configuration not stated", "T1": "0", "T2": "0", "T3": "0"}
{"compound": "C1Cc2[nH]nc(-c3nn[nH]n3)c2C1", "T1": "0", "T2": "0", "T3": "0"}
{"compound": "CCn1cnnc1CCn1ccnc1-c1cc2n(n1)CCNC2", "T1": "0", "T2": "0", "T3": "0"}
{"compound": "CCC(O)Cn1nc(C)nc1Cc1c(C)noc1C", "stereo": "configuration not stated", "T1": "0", "T2": "0", "T3": "0"}
{"compound": "N#CC1=C(N)Oc2c(c(=O)oc3ccccc23)C1c1ccccc1", "stereo": "configuration not stated", "T1": "0", "T2": "0", "T3": "0"}
{"compound": "CN(C)CCN(Cc1ccc(Cl)cc1)c1ccccn1", "T1": "0", "T2": "0", "T3": "1"}
{"compound": "N=c1c2c(-c3ccccc3)c(-c3ccccc3)oc2ncn1CCCO", "T1": "0", "T2": "0", "T3": "0"}
{"compound": "c1cncc(NCCNC2CCSC2)c1", "stereo": "configuration not stated", "T1": "0", "T2": "0", "T3": "0"}
{"compound": "Cc1ccc(-c2noc(-c3cccnc3NCc3ccc(Cl)cc3)n2)cc1", "T2": "0", "T3": "0"}
{"compound": "CC(c1cncs1)N(C)C(=O)c1cccc(CC2CCNCC2)c1", "stereo": "configuration not stated", "T1": "0", "T2": "0", "T3": "0"}
{"compound": "Cc1ccc(NC(=O)Cn2nnc(C(=O)Nc3ccccc3)c2N)cc1", "T1": "0", "T2": "0", "T3": "0"}
{"compound": "Cc1ccnc(CC(C)N(C)Cc2cc(C#CCO)cs2)c1", "stereo": "configuration not stated", "T1": "0", "T2": "0", "T3": "0"}
{"compound": "CO[C@H]1C[C@@H](O)C12CCN(C(=O)Cc1nc3nc(C)cc(C)n3n1)CC2", "T1": "0", "T2": "0", "T3": "0"}
{"compound": "Cc1ccc(-c2ccc3[nH]c(CO)nc3c2)c(-n2cccn2)c1", "T1": "0", "T2": "0", "T3": "0"}
{"compound": "Cc1ccc2c(c1Br)C1(C(=O)N2)C(C#N)=C(N)Oc2[nH]nc(-c3ccc(F)cc3)c21", "stereo": "configuration not stated", "T1": "0", "T2": "0", "T3": "0"}
{"compound": "CCOc1ccccc1CCCN1CC2(CCNCC2)CCC1=O", "T1": "0", "T2": "0", "T3": "0"}
{"compound": "COc1ccc2c(c1OC)C(=O)O[C@H]2[C@H]1c2c(cc3c(c2OC)OCO3)CCN1C", "T1": "0", "T2": "0", "T3": "0"}
{"compound": "CC(Cn1ccnc1)NCc1nc2cc(C(C)(C)C)ccc2o1", "stereo": "configuration not stated", "T1": "0", "T2": "0", "T3": "0"}
{"compound": "COC(=O)CCCNc1cc(C)nc2nc(-c3cccc(C)c3)nn12", "T2": "0", "T3": "0"}
{"compound": "CCc1cnc(C)nc1N1CCN(Cc2cc(C#CCO)cs2)CC1", "T1": "0", "T2": "0", "T3": "0"}
{"compound": "CCCC=CCN1CC[C@@H]2[C@@H](CCC(=O)N2CCCCO)C1", "T1": "0", "T2": "0", "T3": "0"}
{"compound": "CCOC(=O)c1nn(-c2ccccc2)cc1O", "T1": "0", "T2": "0", "T3": "0"}
{"compound": "CC(C)(C)c1nnc(NC[C@@H]2C[C@H](F)CN2)o1", "T1": "0", "T2": "0", "T3": "0"}

For reference, 5 entries once more:

- O=C(CN1CCN(c2ncccn2)CC1)N[C@@H]1CCNC[C@H]1O : T1: 0; T2: 0; T3: 0
- Cc1nc(N(C)C)nc(NC[C@H]2CCCC[C@H]2O)c1C : T1: 0; T2: 0; T3: 0
- CCCCc1nc2ccccc2c(NC(=O)CNC(C)(C)C)c1CCC.O=C(O)C(=O)O : T1: 0; T2: 0; T3: 0
- COc1ccc2c(c1OC)C(=O)O[C@H]2[C@H]1c2c(cc3c(c2OC)OCO3)CCN1C : T1: 0; T2: 0; T3: 0
- CC(C)(C)c1nnc(NC[C@@H]2C[C@H](F)CN2)o1 : T1: 0; T2: 0; T3: 0